Results reported in PubChem BioAssay.
This is one part of the list. Shown are side measurements of this screen, not its main read-out; they come without a call.

test: protection against mutant huntingtin cytotoxicity, PC12 cells, LDH release (AID 1610); conditions: PC12 mutant huntingtin toxicity, final LDH at 4 uM, stronger effect = lower value

| Structure (SMILES) | normalised LDH release |
| --- | --- |
| CC1CCC2(OC1)OC1CC3C4CC[C@H]5C[C@@H](O)CC[C@]5(C)C4CC(=O)[C@]3(C)C1C2C (some centres undefined) | 0.468 |
| O=C(CCCN1CC=C(n2c(=O)[nH]c3ccccc32)CC1)c1ccc(F)cc1 | 0.893 |
| Cc1c(NC(=O)c2cccnc2)c(=O)n(-c2ccccc2)n1C | 0.839 |
| O=C1NCC2(CCN(CCc3ccccc3)CC2)O1 | 0.859 |
| Oc1cccc(O)c1 | 0.658 |
| C[N+]12CCC(CC1)C(OC(=O)C(O)(c1ccccc1)c1ccccc1)C2 (centres undefined) | 0.891 |
| CC(C)[C@@H](C)/C=C/[C@@H](C)C1CC[C@H]2/C(=C/C=C3\C[C@@H](O)CC[C@@H]3C)CCC[C@]12C (some centres undefined) | 0.659 |
| Cc1cccc(N(C)C(=S)Oc2ccc3ccccc3c2)c1 | 0.954 |
| CCCCCC(=O)O[C@]1(C(C)=O)CCC2C3CCC4=CC(=O)CC[C@]4(C)C3CC[C@@]21C (some centres undefined) | 0.823 |
| CN(C)CCOC(c1ccccc1)c1ccccc1 | 0.652 |
| CC1(C)O[C@@H]2CC3C4C[C@H](F)C5=CC(=O)CC[C@]5(C)C4[C@@H](O)C[C@]3(C)[C@]2(C(=O)CO)O1 (some centres undefined) | 0.709 |
| COc1ccc(Cl)cc1C(=O)NCCc1ccc(S(=O)(=O)NC(=O)NC2CCCCC2)cc1 | 0.826 |
| Cc1ccc(N(CC2=NCCN2)c2cccc(O)c2)cc1 | 0.948 |
| CSc1ccc2c(c1)C(N1CCN(C)CC1)Cc1ccccc1S2 (centres undefined) | 1.52 |
| S=c1nc[nH]c2nc[nH]c12 | 1.11 |
| COc1cnc(NS(=O)(=O)c2ccc(N)cc2)nc1 | 0.883 |
| CC(Cc1cccc(C(F)(F)F)c1)NCCOC(=O)c1ccccc1 (centres undefined) | 0.943 |
| Cc1cccc(CN2CCN(C(c3ccccc3)c3ccc(Cl)cc3)CC2)c1 (centres undefined) | 0.768 |
| c1ccc(CN(CC2=NCCN2)c2ccccc2)cc1 | 1.04 |
| COC(=O)/C(=C1\OC(=O)C(c2ccccc2)C1=O)c1ccccc1 (centres undefined) | 1.01 |

| Structure (SMILES) | normalised LDH release |
| --- | --- |
| COc1cc(OC)c2ccc(=O)oc2c1 | 1.28 |
| COc1cc(NS(=O)(=O)c2ccc(N)cc2)nc(OC)n1 | 0.894 |
| CCCCCC(C)N (centres undefined) | 0.912 |
| NC1=NCCN1CC(=O)O | 0.732 |
| COC(=O)C1[C@H]2C[C@H]3c4[nH]c5ccccc5c4CCN3C[C@@H]2CC[C@@H]1O (some centres undefined) | 0.915 |
| CSCCC(NC=O)C(=O)NC(C)C(=O)O (centres undefined) | 0.71 |
| CC(C)(Oc1ccc(Cl)cc1)C(=O)O | 0.613 |
| O=C1c2cccc(O)c2C(=O)c2c(O)cccc21 | 1.32 |
| CC(=O)OCC(=O)[C@@]12OC(C)(C)O[C@@H]1C[C@H]1C3C[C@H](F)C4=CC(=O)C=CC4(C)[C@@]3(F)[C@@H](O)C[C@@]12C (some centres undefined) | 1.13 |
| CN(C)CCCN1c2ccccc2CCc2ccc(Cl)cc21 | 1.03 |
| CC(=O)OCC[N+](C)(C)C | 0.846 |
| O=C(CCBr)N1CCN(C(=O)CCBr)CC1 | 0.712 |
| Nc1nc2c(c(=O)[nH]1)N(C=O)C(CNc1ccc(C(=O)N[C@@H](CCC(=O)O)C(=O)O)cc1)CN2 (some centres undefined) | 0.892 |
| O=C(O)CCC(=O)c1ccc(-c2ccccc2)cc1 | 1.05 |
| CC[C@@H](C(=O)[C@@H](C)[C@@H](O)[C@H](C)[C@@H]1O[C@@H]([C@@H](CC)C(=O)O)CC[C@@H]1C)[C@H]1OC2(C=C[C@@H](O)[C@]3(CC[C@@](C)([C@H]4CC[C@](O)(CC)[C@H](C)O4)O3)O2)[C@H](C)C[C@@H]1C (some centres undefined) | 0.954 |
| COC(=O)[C@H]1[C@H]2C[C@H]3c4[nH]c5ccccc5c4CCN3C[C@H]2CC[C@@H]1O | 0.22 |
| CC1(C)C2CC[C@]3(C)C(C(=O)C=C4[C@@H]5C[C@@](C)(C(=O)O)CC[C@]5(C)CC[C@]43C)[C@@]2(C)CC[C@@H]1O (some centres undefined) | 1.16 |
| CCCCC(CC)CN=C(N)NC(N)=NCCCCCCN=C(N)NC(N)=NCC(CC)CCCC (centres undefined) | 0.581 |
| Cc1ncc([N+](=O)[O-])n1CCO | 0.951 |

Ordered by number of heavy atoms (high to low): 3 of the compounds above

| Structure (SMILES) | normalised LDH release |
| --- | --- |
| CCCCC(CC)CN=C(N)NC(N)=NCCCCCCN=C(N)NC(N)=NCC(CC)CCCC (centres undefined) | 0.581 |
| CC1(C)C2CC[C@]3(C)C(C(=O)C=C4[C@@H]5C[C@@](C)(C(=O)O)CC[C@]5(C)CC[C@]43C)[C@@]2(C)CC[C@@H]1O (some centres undefined) | 1.16 |
| CN(C)CCCN1c2ccccc2CCc2ccc(Cl)cc21 | 1.03 |
